Data published in PubChem BioAssay AID588590 (National Center for Advancing Translational Sciences (NCATS), 2011).
Values joined by “and” are separate entries in the source; they are usually repeats but may differ in a detail not shown here. Identical values can stand only once. Hit rate of the full screen: of about 390,000 compounds, about 4,000 (1%) were called active. Inconclusive results, whose numbers are uncertain, are shown with a selection of clear calls. Calls come from the whole dose curve; as a rule, active = well fitted inhibition curve with a large enough effect; inconclusive = small, poorly fitted or top-dose-only effect, or another doubt; inactive = no such curve, though single readings can be large or run the other way. Potencies of inconclusive entries are doubtful fits and often do not repeat.

Protein sequences, listed by entry. Tags and fused reporters are not part of them. Lines headed by an entry give the natural chain unless they say otherwise; changes in a name come on top.
UniProt Q9UNA4: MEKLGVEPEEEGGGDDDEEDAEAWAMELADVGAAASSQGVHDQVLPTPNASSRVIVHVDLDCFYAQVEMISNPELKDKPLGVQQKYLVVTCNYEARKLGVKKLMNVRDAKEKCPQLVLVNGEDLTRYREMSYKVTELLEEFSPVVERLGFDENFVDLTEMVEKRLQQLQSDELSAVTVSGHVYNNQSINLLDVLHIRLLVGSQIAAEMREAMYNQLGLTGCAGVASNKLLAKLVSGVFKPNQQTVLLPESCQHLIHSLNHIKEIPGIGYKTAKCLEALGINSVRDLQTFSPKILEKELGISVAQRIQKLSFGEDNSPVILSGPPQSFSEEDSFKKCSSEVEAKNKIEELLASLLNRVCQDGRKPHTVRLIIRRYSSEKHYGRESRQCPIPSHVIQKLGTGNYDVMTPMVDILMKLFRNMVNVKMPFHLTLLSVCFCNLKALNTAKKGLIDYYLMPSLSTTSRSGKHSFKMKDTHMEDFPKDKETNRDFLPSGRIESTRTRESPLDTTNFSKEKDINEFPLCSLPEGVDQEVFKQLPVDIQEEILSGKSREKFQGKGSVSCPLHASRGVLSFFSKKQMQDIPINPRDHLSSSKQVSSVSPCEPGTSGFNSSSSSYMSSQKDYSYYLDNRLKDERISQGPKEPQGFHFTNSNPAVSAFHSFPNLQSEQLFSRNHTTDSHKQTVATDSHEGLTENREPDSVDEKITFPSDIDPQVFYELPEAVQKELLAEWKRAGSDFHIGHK

Target: DNA polymerase iota (Homo sapiens) (UniProt Q9UNA4)
Test: qHTS for Inhibitors of Polymerase Iota
Settings: Pol iota fluorescent replication assay, 10 min; series mostly up to 115 µM
Method in brief: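 Fluorescent replication assay read twice, at 0 min and 10 min after adding 50 nM (final) substrate. Enzyme (10 nM) and compounds were first incubated 15 min at room temperature; enzyme-free buffer wells were negative controls.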
Potency is the fitted concentration of half-maximal effect.

Structure (SMILES) | Potency
CCOC(=O)Cn1ncc2c3ccccc3n(CC(=O)OCC)c2c1=O | inconclusive: 89.1 µM [inhibitor, single point]
CC1CCCCN1CCn1c(=S)[nH]c2ncccc2c1=O (centres undefined) | inconclusive: 25.1 µM [inhibitor, full curve, poor fit]
CCCC1Nc2ccc(C(=O)O)cc2C2C=CCC12 (centres undefined) | active: 17.8 µM
CC(C)c1ccc(OC(=O)c2cc(-c3ccccc3)on2)cc1 | inactive
CCN(CC)c1ccc(NS(=O)(=O)c2cc3[nH]c(=O)c(=O)[nH]c3cc2C)c(C)c1 | inconclusive: 56.2 µM [inhibitor, partial curve, poor fit]
Cc1ccc(C(=O)N2CCC3(CC2)Oc2ccc(Cl)cc2C(=O)C32CC(c3ccccc3)=NO2)s1 (centres undefined) | inconclusive: 70.8 µM [inhibitor, partial curve]
COc1ccc2cc([C@H](C)C(=O)OCc3cn(CC(=O)c4ccc(O)cc4)nn3)ccc2c1 | inconclusive: 2.24 µM [inhibitor, full curve]
COc1cccc(N2CCN(C(=O)Cn3c(-c4cccs4)cc4ccccc43)CC2)c1 | inactive
Cc1ccccc1N1CCN(CCN2C(=O)CC(=C3c4ccccc4-c4ccccc43)C2=O)CC1 | inconclusive: 14.1 µM [inhibitor, partial curve, poor fit]
C=C1C(=O)OC2C1C(OC(=O)C(C)=CC)CC(=C)C1C(O)C3OC3(C)C21O (centres undefined) | inconclusive: 22.4 µM [inhibitor, full curve, poor fit]
O=C(Nc1cccc(C(F)(F)F)c1)c1cc2ccc3cccnc3c2[nH]1 | inconclusive: 89.1 µM [inhibitor, partial curve, poor fit]
Cc1ccccc1CN(c1ccc(C(=O)N2CCCC2)cc1)S(C)(=O)=O | inconclusive: 100 µM [inhibitor, single point]
C=C1C=C(C(F)(F)F)n2ncc(C(=O)NCc3ccc(F)cc3)c2N1 | inactive
O=C(O)CSCC(=O)Nc1ccc(S(=O)(=O)N2CCCCC2)cc1 | inconclusive: 22.4 µM [inhibitor, partial curve, poor fit]
O=C(CCN1C(=O)/C(=C/c2cccs2)SC1=S)Nc1ccc(C(=O)O)cc1 | inconclusive: 79.4 µM [inhibitor, partial curve]
CC1(C)CCC2=C(O1)c1ccccc1C(=O)C2=O | active: 8.91 µM and active: 7.94 µM
Cc1cccc(-c2nc3c4ccccc4nc(N4CCN(c5cc(C)ccc5C)CC4)n3n2)c1 | inactive
BrC(/C=C\c1ccccc1)=N/Nc1nc(N2CCOCC2)nc(N2CCOCC2)n1 | inconclusive: 17.8 µM [inhibitor, partial curve, poor fit]
O=C(Nc1nccs1)c1cc2sccc2n1Cc1ccc(F)cc1 | inconclusive: 79.4 µM [inhibitor, partial curve]
O=C(CSc1nnc(Nc2ccccc2F)s1)NC(=O)CN1CCCC1=O | inconclusive: 50.1 µM [inhibitor, partial curve, poor fit]
c1ccc2c(Nc3ccc(N4CCOCC4)cc3)nc(N3CCOCC3)nc2c1 | inconclusive: 89.1 µM [inhibitor, partial curve, poor fit]
CCN(CC)c1ccc2cc(C(N)=O)/c(=N\NC(=O)c3ccncc3)oc2c1 | inconclusive: 7.94 µM [inhibitor, full curve, poor fit]

Structure (SMILES) | Potency
COc1ccc(C(=O)Nc2ccc(S(=O)(=O)N3CCc4ccccc43)cc2)cc1 | inactive
O=C1/C(=C/c2ccccn2)SC(=S)N1CCc1ccccc1 | inconclusive: 39.8 µM [inhibitor, single point]
CC1CCCC/C1=N/Nc1ccc([N+](=O)[O-])cc1[N+](=O)[O-] (centres undefined) | inconclusive: 22.4 µM [inhibitor, single point]
Nc1cc(S(=O)(=O)O)cc2ccc(S(=O)(=O)O)cc12 | inconclusive: 28.2 µM [inhibitor, single point]
O=C(Cc1ccccc1)Nc1nc(-c2cccs2)cs1 | inconclusive: 25.1 µM [inhibitor, partial curve, poor fit]
CCN1C[C@@H]2[C@@H]3C(=O)N(C)C(=O)[C@@H]3[C@](Cc3ccccc3)(C(=O)OC)N2C1=NC1CCCCC1 | inconclusive: 20 µM [inhibitor, full curve, poor fit]
O=C(NCCCN1CCN(c2ccc(F)cc2)CC1)c1ccc2nc(Cc3ccccc3)oc2c1 | inactive
O=c1c([N+](=O)[O-])cn(Cc2ccccc2)c(=O)n1Cc1ccccc1 | inconclusive: 35.5 µM [inhibitor, single point]
CCOc1ccc2nc(N(CCN(CC)CC)C(=O)c3cccc([N+](=O)[O-])c3)sc2c1 | inconclusive: 6.31 µM [inhibitor, partial curve, poor fit]
CC(C)(C)c1ccc(C(=O)NC(=S)NCC2CCCO2)cc1 (centres undefined) | inactive
O=[N+]([O-])c1cccc2c(S(=O)(=O)N3CCOCC3)cccc12 | inconclusive: 79.4 µM [inhibitor, partial curve, poor fit]
COc1cc2[nH]c(=O)c(C(=O)NCCCN3CCCCC3)c(O)c2cc1OC | inconclusive: 22.4 µM [inhibitor, partial curve, poor fit]
COC(CNC(=O)c1cccnc1)OC | inactive
O=C(Nc1ccccc1Cl)c1ccc2nccnc2c1 | inconclusive: 112 µM [inhibitor, partial curve, poor fit]
CCC(=O)Nc1cccc(C(=O)OCc2cc(=O)n3nc(CC)sc3n2)c1 | inactive
COc1cccc(CN2CCC(Oc3ccc(C(=O)NCc4ccccn4)cc3)CC2)c1O | inconclusive: 79.4 µM [inhibitor, single point]
O=C(NCC(=O)N(Cc1ccco1)C(C(=O)NC1CCCCC1)c1cccnc1)c1cccs1 (centres undefined) | inconclusive: 10 µM [inhibitor, single point]
O=C1/C(=C/c2ccccc2[N+](=O)[O-])COc2ccccc21 | inconclusive: 15.8 µM [inhibitor, full curve, poor fit]
CCN(CC)S(=O)(=O)c1cccc(NC(=O)COC(=O)CCC(=O)c2cccs2)c1 | inconclusive: 89.1 µM [inhibitor, single point]
COc1cccc(/C=C2/SC(=S)N(CC(=O)NNC(=O)c3ccccc3O)C2=O)c1 | inconclusive: 17.8 µM [inhibitor, full curve, poor fit]
COc1ccc2nc(C)cc(N/N=C/c3cccc(OC)c3O)c2c1 | inconclusive: 12.6 µM [inhibitor, full curve]
COc1ccc2cc(C3CC(c4ccco4)=NN3S(C)(=O)=O)c(Cl)nc2c1 (centres undefined) | inconclusive: 39.8 µM [inhibitor, single point]

Structure (SMILES) | Potency
C=CCNc1nc2ccccc2nc1NS(=O)(=O)c1ccc(F)cc1 | inconclusive: 28.2 µM [inhibitor, partial curve]
O=C(Nc1ccc(S(=O)(=O)NCc2ccco2)cc1)c1cccc(F)c1 | inconclusive: 25.1 µM [inhibitor, full curve, poor fit]
Cc1cc(C)nc(SSc2nc(C)cc(C)n2)n1 | inconclusive: 17.8 µM [inhibitor, single point]
CCOC(=O)c1c(C)[nH]c(C)c1S(=O)(=O)N1CCCC(C(=O)N2CCN(c3ccccc3)CC2)C1 (centres undefined) | inactive
O=C(COC(=O)/C=C/c1ccccc1[N+](=O)[O-])NC(=O)NC1CCCC1 | inactive
c1ccc(OCCOCCOc2ccccc2)cc1 | inconclusive: 100 µM [inhibitor, single point]
C=CCn1c2ccccc2c2nnc(SCC(N)=O)nc21 | inactive
COc1ccc2c(C(=O)CN3CCN(CCO)CC3)c[nH]c2c1 | inconclusive: 56.2 µM [inhibitor, full curve]
COc1ccccc1NS(=O)(=O)c1ccc(O)c(C(=O)OCc2cccc([N+](=O)[O-])c2)c1 | inconclusive: 20 µM [inhibitor, partial curve, poor fit]
O=C(O)c1cccc2c1Cc1cc(Cl)ccc1-2 | inactive
CNC(=O)N(O)C1N(/N=C/c2ccc(C)cc2)C(=S)SC1(C)C (centres undefined) | inconclusive: 11.2 µM [inhibitor, single point]
CC(/C=C1\SC(=S)N(CCCC(=O)Nc2ccc(C(=O)O)c(O)c2)C1=O)=C\c1ccccc1 | inconclusive: 56.2 µM [inhibitor, partial curve, poor fit]
CCOc1ccc(N2C(=O)CS/C2=C(\C(Cl)=C(Cl)Cl)[N+](=O)[O-])cc1 | inconclusive: 31.6 µM [inhibitor, single point]
Cc1cccc(C(=O)NCc2ccco2)c1 | inconclusive: 14.1 µM [inhibitor, full curve]
S=c1[nH]c(-c2ccccc2)cn1/N=C/c1ccc(Br)cc1 | inactive
Oc1c(C=NCc2ccccc2)sc2ccccc12 | inactive
COc1ccc(-c2cc(C(C)=O)c(C)n2CCC(=O)Nc2cc(Cl)ccc2C)cc1 | inactive
Cc1ccc(N2C(=O)/C(=C/c3ccco3)SC2=S)cc1 | inconclusive: 15.8 µM [inhibitor, full curve, poor fit]
COc1cc(C2CC(=O)Oc3c2c(=O)n(C)c2ccccc32)ccc1O (centres undefined) | inconclusive: 79.4 µM [inhibitor, partial curve, poor fit] and inconclusive: 39.8 µM [inhibitor, partial curve, poor fit]
Cc1ccc(Cl)cc1N1CCN(C(=O)c2ccc(CS(=O)(=O)c3ccccc3C)o2)CC1 | inconclusive: 2.82 µM [inhibitor, full curve, poor fit]
